PubChem BioAssay AID1259327, Drosophila RNAi Screening Center | 2017
Assay: 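Data from controls in screens of zinc and manganese toxicity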. System: Drosophila S2R+ cells. Reagent: long dsRNA against Drosophila genes. Time to read-out: 5 days (water added on day 4, read one day later). Conditions: water added as vehicle, no metal, one day before read-out. Detection: 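Luciferase ATP signal per well, normalised to plate mean, duplicate average converted to z-score across plates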. Scale: ATP z-score: higher = more total ATP than typical wells; ATP luminescence: higher = more total ATP. Call rule: 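a hit is any knock-down whose absolute ATP z-score is greater than 1.5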. Calls: active = hit: ATP up or down; inactive = no clear ATP change.
The whole screen tested about 3,100 reagents; below is a part drawn at random. 378 of all reagents (12%) count as active. 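Hits include both directions; z-score sign shows ATP rise or fall; raw luminescence values are not plate-normalised.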 Unmarked entries are inactive. The numbers tell different reagents against one gene apart. Names joined by + are all predicted targets of the reagent. Not given: the amount of reagent.

| gene knocked down | reagent | ATP z-score, duplicate mean | ATP luminescence, replicate 1 (RLU) | ATP luminescence, replicate 2 (RLU) |
| --- | --- | --- | --- | --- |
| nAChRbeta3 | 1 | -0.995 | 4.23e5 | 3.95e5 |
| NaPi-T | 1 | -0.0884 | 5.71e5 | 6.52e5 |
| NaPi-T | 2 | -0.636 | 8.04e5 | 7.39e5 |
| CG4168 | 1 | 1.71 (active) | 9.87e5 | 8.66e5 |
| CG4168 | 2 | -1.25 | 3.29e5 | 4.60e5 |
| CG4168 | 3 | -0.654 | 4.89e5 | 5.60e5 |
| ppk12 | 1 | -0.901 | 5.83e5 | 6.77e5 |
| ppk12 | 2 | 2.64 (active) | 5.52e5 | 7.41e5 |
| Oatp58Db | 1 | 0.903 | 4.85e5 | 6.73e5 |
| Ddr | 1 | 1.15 | 8.16e5 | 6.30e5 |
| Ddr | 2 | -0.0126 | 7.28e5 | 7.21e5 |
| Ddr | 3 | -1.69 (active) | 4.12e5 | 4.61e5 |
| CG46441 | 1 | 0.208 | 7.28e5 | 7.26e5 |
| CG46441 | 2 | 0.407 | 9.19e5 | 8.29e5 |
| CG7992 | 1 | -0.495 | 6.72e5 | 7.06e5 |
| CG9664 | 1 | -0.286 | 4.83e5 | 4.33e5 |
| CG3803 | 1 | 0.267 | 7.64e5 | 7.45e5 |
| Gr94a | 1 | -0.823 | 2.53e5 | 6.96e5 |
| Gr94a | 2 | -1.1 | 3.75e5 | 4.06e5 |
| CG1636 | 1 | -1.13 | 6.13e5 | 5.66e5 |
| MFS12 | 1 | -0.292 | 6.77e5 | 7.24e5 |
| Ir100a | 1 | 1.71 (active) | 1.04e6 | 1.08e6 |
| Ir100a | 2 | 0.649 | 5.21e5 | 4.72e5 |
| CG8468 | 1 | -1.25 | 5.76e5 | 4.37e5 |
| CG8468 | 2 | 0.178 | 8.79e5 | 8.65e5 |

Reprinted from the entries so far for reference:
| gene knocked down | reagent | ATP z-score, duplicate mean | ATP luminescence, replicate 1 (RLU) | ATP luminescence, replicate 2 (RLU) |
| --- | --- | --- | --- | --- |
| Oatp58Db | 1 | 0.903 | 4.85e5 | 6.73e5 |
| Ddr | 1 | 1.15 | 8.16e5 | 6.30e5 |
| Ddr | 2 | -0.0126 | 7.28e5 | 7.21e5 |

The list goes on.
| gene knocked down | reagent | ATP z-score, duplicate mean | ATP luminescence, replicate 1 (RLU) | ATP luminescence, replicate 2 (RLU) |
| --- | --- | --- | --- | --- |
| KaiR1D | 1 | -0.262 | 2.91e5 | 7.25e5 |
| schlank | 1 | -1.48 | 4.76e5 | 6.24e5 |
| ppk21 | 1 | 0.434 | 6.35e5 | 7.69e5 |
| ppk21 | 2 | -0.405 | 4.38e5 | 4.15e5 |
| CG31668 | 1 | 1.47 | 6.79e5 | 7.29e5 |
| CG31668 | 2 | 0.986 | 4.66e5 | 5.67e5 |
| Ent1 | 1 | -1.7 (active) | 3.52e5 | 3.69e5 |
| CG31121 | 1 | 0.631 | 7.75e5 | 8.49e5 |
| CG31121 | 2 | -1.1 | 2.37e5 | 6.75e5 |
| Lcch3 | 1 | 0.0773 | 7.20e5 | 4.50e5 |
| spin | 1 | 0.245 | 8.47e5 | 9.15e5 |
| spin | 2 | -0.685 | 4.50e5 | 3.86e5 |
| GluRIA | 1 | -0.102 | 9.14e5 | 8.52e5 |
| boss | 1 | -0.872 | 2.51e5 | 6.91e5 |
| boss | 2 | -1.34 | 6.57e5 | 7.10e5 |
| CG11655 | 1 | -1.62 (active) | 5.07e5 | 6.98e5 |
| GC2 | 1 | -0.0284 | 2.62e5 | 8.50e5 |
| GC2 | 2 | 0.359 | 8.68e5 | 9.33e5 |
| Agpat2 | 1 | -0.128 | 5.35e5 | 4.00e5 |
| Agpat2 | 2 | 0.854 | 8.43e5 | 9.23e5 |
| CG11367 | 1 | -1.11 | 6.98e5 | 7.27e5 |
| CG43672 + CG43673 | 1 | 0.98 | 9.16e5 | 9.33e5 |
| CG43672 + CG43673 | 2 | -0.643 | 6.78e5 | 9.96e5 |
| Ten-m | 1 | -0.512 | 6.87e5 | 6.87e5 |
| Ten-m | 2 | -0.413 | 8.62e5 | 8.22e5 |
| NijC | 1 | 0.682 | 3.56e5 | 7.69e5 |
| NijC | 2 | 0.789 | 1.05e6 | 8.01e5 |
| CG3792 | 1 | 0.415 | 7.58e5 | 7.82e5 |
| CG31792 | 1 | 0.0701 | 7.40e5 | 7.28e5 |
| CG31792 | 2 | -0.506 | 3.64e5 | 5.00e5 |
| E23 | 1 | -0.688 | 6.64e5 | 6.43e5 |
| E23 | 2 | 0.901 | 1.03e6 | 8.89e5 |
| CG16723 | 1 | 0.463 | 3.21e5 | 8.10e5 |
| CG16723 | 2 | -1.2 | 9.39e5 | 1.26e6 |
| Alg3 | 1 | 0.596 | 7.54e5 | 8.36e5 |
| SCAP | 1 | -0.658 | 5.46e5 | 5.74e5 |
| SCAP | 2 | 0.86 | 7.44e5 | 6.50e5 |
| NPFR | 1 | -0.548 | 8.29e5 | 8.19e5 |
| mys | 1 | 0.458 | 5.94e5 | 8.27e5 |
| mys | 2 | -0.927 | 7.33e5 | 6.91e5 |
| ifc | 1 | -0.116 | 4.93e5 | 4.47e5 |
| ifc | 2 | -0.0335 | 4.33e5 | 4.94e5 |
| Or47a | 1 | -0.454 | 5.58e5 | 5.99e5 |
